Laboratory results published in PubChem BioAssay AID493014 (National Center for Advancing Translational Sciences (NCATS), 2011).
The other results are listed elsewhere or left out. These are further read-outs of the screen, such as a control signal, another cell line or another target. No call is given for them. The list favours compounds with an active or inconclusive main result. Potencies come from curve fits of mixed quality, noted in brackets.

Assay: qHTS Assay to Find Inhibitors of Chronic Active B-Cell Receptor Signaling
Details: ABC-DLBCL IkBa-CBG/CBR reporter, luminescence ratio (green luciferase fused to IkBa over red control in TMD8 lymphoma cells), 4 h
How it was run: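 Compounds up to 46 uM were incubated four hours with TMD8 cells whose green CBG68 luciferase is fused to IkappaBalpha; red CBR luminescence normalised the signal, and concentration-effect curves were fitted to fusion, red and ratio data.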

[1] = measured here: CBR red luminescence, cell number
[2] = measured here: IkBa-CBG green luminescence

| Structure (SMILES) | AC50 [1] | AC50 [2] |
| --- | --- | --- |
| Nc1nc(-c2ccccc2)cc(N2CCCCC2)n1 | 22.4 µM [rising, single point] |  |
| O=C1NC(=O)C2=Cc3ccc(O)cc3OC2(O)N1 (stereo not drawn) | 35.5 µM [falling, single point] |  |
| C=C1C(=O)O[C@@H]2C[C@@H](C)[C@@H]3C4OC4C(=O)[C@@]3(C)[C@@H](O)[C@H]12 (stereo partly drawn) | 15.8 µM [falling, single point] | 31.6 µM [rising, single point] |
| CCc1ccccc1N1C(=O)/C(=C/c2ccc(N3CCN(C)CC3)o2)C(=O)NC1=S | 23.1 µM [rising, partial curve] | 23.1 µM [falling, partial curve, poor fit] |
| CC(C)CCOC(=O)c1c(N)n(CC2CCCO2)c2nc3ccccc3nc12 (stereo not drawn) | 7.31 µM [falling, partial curve] |  |
| COc1ccccc1NC(=O)C/C(C)=N/NC(=O)c1ccccn1 | 12.6 µM [falling, partial curve, poor fit] |  |
| CCOC(=O)Cn1cc([N+](=O)[O-])nc1[N+](=O)[O-] | 35.5 µM [falling, single point] |  |
| Cc1cc(NC(=O)CCl)no1 | 0.891 µM [falling, full curve, poor fit] |  |
| Nc1ccc(C2(c3ccc(N)cc3)c3ccccc3-c3ccccc32)cc1 | 29.1 µM [falling, single point] |  |
| O=C(O)c1ccc(/C=C/c2nc3ccccc3c(=O)n2-c2ccc(Br)cc2)cc1 | 11.2 µM [falling, partial curve, poor fit] |  |
| O=C(O)Cc1sc(Nc2ccc(Cl)cc2)nc1-c1cccs1 | 10 µM [falling, partial curve, poor fit] |  |
| CCCOC(=O)c1c(N)n(Cc2cccs2)c2nc3ccccc3nc12 | 0.58 µM [falling, full curve, poor fit] |  |
| CCc1c(C)nc(N)nc1N1N=C1SCC(N)=O | 1.3 µM [falling, full curve, poor fit] |  |
| COc1cccc(/C=N\NC(=O)c2ccc(C)nc2)c1 | 14.1 µM [falling, single point] |  |
| CCNC(=O)COC(=O)/C=C/c1c(C)nn(Cc2cccc(OC)c2)c1Cl | 35.5 µM [falling, single point] |  |
| O=C(O)Cn1cc(C=C2C(=O)NC(=O)NC2=O)c2ccccc21 | 6.31 µM [rising, single point] |  |
| CC(Cc1ccccc1)[n+]1cc(/N=C(\[O-])Nc2ccccc2)on1 (stereo not drawn) | 0.731 µM [rising, full curve, poor fit] |  |
| C[C@]12CC[C@H](O)CC1=C([N+](=O)[O-])CC1C2CC[C@@]2(C)C1CC[C@@H]2O (stereo partly drawn) | 2.91 µM [rising, full curve] |  |
| CCCOc1ccccc1NP(=O)(Oc1ccccc1)Oc1ccccc1 | 3.55 µM [rising, partial curve, poor fit] |  |

| Structure (SMILES) | AC50 [1] | AC50 [2] |
| --- | --- | --- |
| CCOC(=O)C1=C(N)Oc2c(c(=O)oc3ccccc23)C12C(=O)N(C)c1ccccc12 (stereo not drawn) | 2.82 µM [falling, full curve, poor fit] |  |
| CN(c1cccc(NC(=O)c2ccc(N(C)S(=O)(=O)c3ccccc3)cc2)c1)S(C)(=O)=O | 14.1 µM [falling, partial curve, poor fit] |  |
| Cc1cc(OC(=O)c2ccco2)c2c3c(c(=O)oc2c1)CCCC3 | 3.66 µM [rising, full curve] |  |
| CN1C(=O)C(=Cc2ccccc2OCc2ccccc2Cl)C(=O)N(C)C1=O | 25.9 µM [rising, single point] |  |
| COC(=O)C1=C(c2c(C)noc2C)C[C@@H]2CC[C@H]1N2C(=O)NCc1ccc(F)cc1 | 25.9 µM [falling, partial curve, poor fit] |  |
| NC(=O)c1ccc(N=Cc2c(O)n(Cc3ccco3)c(=O)[nH]c2=O)cc1 | 35.5 µM [rising, single point] |  |
| O=C(NC1CCCCC1)Oc1cc2oc(=O)sc2cc1Cl | 12.6 µM [rising, partial curve] | 35.5 µM [falling, partial curve, poor fit] |
| COc1ccccc1N(CC(=O)NC1CCCCC1)C(=O)CNC(=O)c1cccs1 | 17.8 µM [falling, single point] |  |
| CCCCCn1cnc2sc(-c3ccccc3)cc2c1=O | 2.82 µM [rising, partial curve] |  |
| COC(=O)C1=C(c2ccc(OC)c(OC)c2)C[C@@H]2CC[C@H]1N2C(=O)NCc1cccc2ccccc12 | 23.1 µM [falling, partial curve, poor fit] | 23.1 µM [rising, partial curve, poor fit] |
| O=[N+]([O-])c1cccc2c([As](=O)(O)O)cccc12 | 10 µM [falling, partial curve, poor fit] |  |
| O=C(Cn1cc(C(=O)c2ccccc2F)c2ccccc21)NC1CC1 | 15.8 µM [rising, single point] |  |
| Cc1c(C(=O)O)cc(-c2ccccc2)n1Cc1ccccc1 |  | 12.6 µM [rising, partial curve, poor fit] |
| Cc1ccc2nc3c(cc2c1)CC1(C(=O)N(C)C(=O)N(C)C1=O)C1CCCCN31 (stereo not drawn) | 6.51 µM [falling, single point] |  |
| COC(=O)C(O)(c1ccc2c(c1)CCCN2)C(F)(F)F (stereo not drawn) | 15.8 µM [rising, single point] |  |
| c1ccc2c(c1)Sc1ccccc1N2CC1CN2CCC1CC2 (stereo not drawn) | 17.8 µM [falling, single point] |  |
| Cc1ccc(OP(=O)(Nc2cccc(C)c2)Oc2ccc(C)cc2)cc1 | 22.4 µM [falling, single point] |  |
| C[C@]12CC[C@H]3[C@@H](CC[C@]4(O)C[C@@H](O)CC[C@]34C=O)[C@@]1(O)CC[C@@H]2C1=CC(=O)OC1 | 3.66 µM [falling, partial curve] | 29.1 µM [rising, partial curve, poor fit] |
| Nc1c(C(=O)NCc2ccco2)c2nc3ccccc3nc2n1CCN1CCOCC1 | 18.4 µM [falling, partial curve, poor fit] |  |

As a short view, some entries already given:

| Structure (SMILES) | AC50 [1] | AC50 [2] |
| --- | --- | --- |
| COC(=O)C1=C(c2c(C)noc2C)C[C@@H]2CC[C@H]1N2C(=O)NCc1ccc(F)cc1 | 25.9 µM [falling, partial curve, poor fit] |  |
| NC(=O)c1ccc(N=Cc2c(O)n(Cc3ccco3)c(=O)[nH]c2=O)cc1 | 35.5 µM [rising, single point] |  |
